The source of these data is article PMC8018994.

Protein sequences, listed by entry. Tags and fused reporters are not part of them. Residues count along the entry.
UniProt P22646, residues 22-189: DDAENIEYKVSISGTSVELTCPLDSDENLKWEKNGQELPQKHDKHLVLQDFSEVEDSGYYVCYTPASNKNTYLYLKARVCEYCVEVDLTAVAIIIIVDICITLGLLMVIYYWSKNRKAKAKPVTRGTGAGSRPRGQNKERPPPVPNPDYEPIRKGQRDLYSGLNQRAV
UniProt P35951, residues 22-862: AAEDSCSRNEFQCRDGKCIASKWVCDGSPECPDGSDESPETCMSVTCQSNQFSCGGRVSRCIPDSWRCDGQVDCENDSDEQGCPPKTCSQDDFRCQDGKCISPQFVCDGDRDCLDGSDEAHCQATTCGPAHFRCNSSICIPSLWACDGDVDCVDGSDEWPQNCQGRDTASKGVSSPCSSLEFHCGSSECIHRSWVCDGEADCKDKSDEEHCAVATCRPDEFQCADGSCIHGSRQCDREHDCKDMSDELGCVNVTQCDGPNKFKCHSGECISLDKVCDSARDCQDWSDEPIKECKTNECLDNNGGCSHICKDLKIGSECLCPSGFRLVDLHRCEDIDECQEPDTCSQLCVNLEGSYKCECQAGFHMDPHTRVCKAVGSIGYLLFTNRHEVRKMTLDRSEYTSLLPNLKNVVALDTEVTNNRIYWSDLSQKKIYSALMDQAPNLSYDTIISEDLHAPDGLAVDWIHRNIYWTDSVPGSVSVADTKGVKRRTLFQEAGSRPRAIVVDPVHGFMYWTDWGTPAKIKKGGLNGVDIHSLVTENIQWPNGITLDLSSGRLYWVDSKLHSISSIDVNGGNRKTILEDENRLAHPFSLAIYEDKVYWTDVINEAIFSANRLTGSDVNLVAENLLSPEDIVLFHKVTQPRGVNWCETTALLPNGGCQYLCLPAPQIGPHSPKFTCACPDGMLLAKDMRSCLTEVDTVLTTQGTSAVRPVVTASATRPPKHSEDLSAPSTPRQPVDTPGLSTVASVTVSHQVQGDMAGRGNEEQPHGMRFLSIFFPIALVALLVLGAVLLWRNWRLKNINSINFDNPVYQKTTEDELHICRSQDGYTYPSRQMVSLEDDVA

These are yes or no findings as the source states them, for the method shown. Binding seen in cells or lysates may run through a third protein. Some binding calls cover weakened binding; strength is not graded here.

The target of the test is CD3ε (mouse (endogenous in CTLs)) (UniProt P22646). Description: co-IP; CTLs lysed in 0.25% digitonin lysis buffer (50 mmol/L Tris-HCl pH 7.4, 155 mmol/L NaCl, 5 mmol/L EDTA); CD3ε immunoprecipitated, LDLR detected by immunoblotting.

Turning to “low-density lipoprotein receptor (LDLR) (from UniProt P35951 22-862)”, the binding entry was “binds”.
